# Results taken from PubChem BioAssay AID540275 (National Center for Advancing Translational Sciences (NCATS), 2011).
# Protein sequences, listed by entry. Tags and fused reporters are not part of them.
# UniProt Q8NER1, whole entry, looked up: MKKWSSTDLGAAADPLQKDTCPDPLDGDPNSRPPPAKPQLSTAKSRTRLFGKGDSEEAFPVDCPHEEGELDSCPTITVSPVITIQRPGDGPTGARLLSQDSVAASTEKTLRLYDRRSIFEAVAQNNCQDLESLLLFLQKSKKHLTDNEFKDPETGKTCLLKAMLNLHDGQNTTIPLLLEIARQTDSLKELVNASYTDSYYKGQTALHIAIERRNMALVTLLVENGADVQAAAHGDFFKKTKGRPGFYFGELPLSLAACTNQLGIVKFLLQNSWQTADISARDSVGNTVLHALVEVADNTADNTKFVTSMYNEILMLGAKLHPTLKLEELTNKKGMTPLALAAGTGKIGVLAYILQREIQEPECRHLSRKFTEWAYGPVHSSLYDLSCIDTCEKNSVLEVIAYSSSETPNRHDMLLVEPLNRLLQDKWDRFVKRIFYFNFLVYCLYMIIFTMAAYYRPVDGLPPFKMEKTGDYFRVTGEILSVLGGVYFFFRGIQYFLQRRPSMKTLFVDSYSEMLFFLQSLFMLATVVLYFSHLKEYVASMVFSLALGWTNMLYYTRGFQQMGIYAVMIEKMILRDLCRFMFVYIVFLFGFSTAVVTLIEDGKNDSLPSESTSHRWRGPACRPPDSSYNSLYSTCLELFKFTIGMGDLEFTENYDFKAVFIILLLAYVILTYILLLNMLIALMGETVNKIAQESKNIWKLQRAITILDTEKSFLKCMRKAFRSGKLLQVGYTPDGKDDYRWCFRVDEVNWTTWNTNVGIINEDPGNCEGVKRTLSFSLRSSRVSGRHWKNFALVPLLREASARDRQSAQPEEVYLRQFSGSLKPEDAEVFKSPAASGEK
# Out of some 320,000 compounds screened, about 620 (0.19%) were called active. Inconclusive results, whose numbers are uncertain, are shown with a selection of clear calls. Rule as the data show it: active = activation above about 80%; inconclusive = between about 30% and that limit; inactive = weaker than that.
# Target: Transient receptor potential cation channel subfamily V member 1 (Homo sapiens) (UniProt Q8NER1)
# Experiment: HTS Assay for Compounds that Act as Agonists of the Vanilloid Receptor 1; also: 0% is about no effect
# Conditions: TRPV1-expressing cells, Fluo-8 calcium influx, agonist mode; at 8.33 µM, stronger effect = higher value
# Method in brief: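 Fluo-8 calcium influx in TRPV1-expressing cells, kinetic read (ex 480/em 520 nm). Compound added and read 3 min for agonist activity, followed by capsaicin at EC20 final and 2 min further read for enhancement.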
row,Compound,activation
1,Cc1ccccc1-n1c(-c2cccnc2)n[nH]c1=S,inactive: -3.55%
2,CCOCCCn1c(SCC(=O)Nc2cc(OC)ccc2OC)nc2ccccc2c1=O,inconclusive: 43.5%
3,Cc1cc(NC(=O)c2ccc(C)c(C)c2)no1,inconclusive: 34.7%
4,COC(=O)c1cc(OC)c(OC)cc1NC(=S)N1CCN(c2ccccn2)CC1,inactive: 13.6%
5,CCC[C@H](CN[C@@H](CNC)[C@H](C)O)NCCc1ccc(OC)cc1,inactive: -0.521%
6,CCOc1ccc(OCc2ccc(C(=O)NCc3ccncc3)o2)cc1,inconclusive: 31.6%
7,CCOC(=O)C1CCN(C(=O)Nc2ccc3nc(C)c(C)nc3c2)CC1,inactive: -2.92%
8,CNS(=O)(=O)c1cccc(C(=O)OCc2csc(-c3ccccc3)n2)c1,inconclusive: 41.3%
9,CN1CCN(S(=O)(=O)c2cccc(C(=O)NC3(C)CCS(=O)(=O)C3)c2)CC1 (stereo not drawn),inactive: 1.32%
10,Cc1ccccc1OC(C)C(=O)N1CCC(Cc2ccccc2)CC1 (stereo not drawn),inconclusive: 44.6%
11,O=C(Nc1ccc(Cl)cn1)C1C(c2ccccc2)C1(Cl)Cl (stereo not drawn),inconclusive: 56.2%
12,Cc1cccc(NC(=O)CCCSc2nc3ccccc3[nH]2)c1,inconclusive: 79%
13,Cc1ccc(NC(=O)c2ccn(C(=O)Nc3ccccc3)n2)c(C)c1,inconclusive: 34.5%
14,S=c1[nH]nc(C2CCCCC2)n1/N=C/c1ccc(Br)cc1,inactive: 16.3%
15,CC(C)CC(=O)NC(NC(=O)CC(C)C)c1cccc([N+](=O)[O-])c1,inconclusive: 51.8%
16,Cc1ccc(Nc2ncnc3ccccc23)cc1,inconclusive: 70.1%
17,COC(=O)c1c(NC(=O)COC(=O)CC(NC(C)=O)c2ccccc2)sc(C)c1C (stereo not drawn),inactive: -0.284%
18,O=C(Nc1ccc2c(c1)OCO2)C1CCCCN1S(=O)(=O)c1ccccc1 (stereo not drawn),inconclusive: 43.9%
19,O=C(COc1ccc(Cl)cc1)Nc1ccc2c(c1)C(=O)NC2=O,inconclusive: 37.8%
20,O=C(C1CCN(S(=O)(=O)c2ccccc2)CC1)N1CCc2ccccc21,inconclusive: 79.5%

row,Compound,activation
1,Cc1cc(C2=CC(=O)C[C@H](c3ccc4c(c3)OCO4)C2)ccc1F,inconclusive: 37.1%
2,Cc1nn(-c2ccccc2)nc1C(=O)NNC(=O)c1ccc(C(F)(F)F)cc1,inconclusive: 63.2%
3,c1ccc(C(c2ccccc2)N2CCN(c3nc4ccccc4n4cnnc34)CC2)cc1,inactive: -4.9%
4,Cc1ccc(C(=O)Nc2ncccc2O)cc1S(=O)(=O)N1CCCCC1,inconclusive: 68.3%
5,CC(C)CCOc1cccc(OCC(=O)Nc2ccncc2)c1,inconclusive: 57.4%
6,Cc1ccc(Sc2ncccc2C(=O)NCc2cc([N+](=O)[O-])ccc2O)c(C)c1,inconclusive: 59.2%
7,CN1/C(=C\C=O)C(C)(C)c2ccccc21,inactive: 0.248%
8,CSCCC(=O)N1CCC(n2nccc2NC(=O)CCCc2ccccc2)CC1,inconclusive: 34.2%
9,CCCCNC(=S)NNC(=O)c1cc(-c2cccnc2)nc2ccccc12,inactive: -2%
10,O=[N+]([O-])c1ccc(Nc2ccc3ccccc3c2)nc1,inactive: -0.339%
11,COc1cccc(/C=C(/C(=O)OCC(=O)NC2CCCCCCC2)c2ccccc2)c1,inconclusive: 35%
12,CCCC1CCC(C(=O)Nn2c(C)nc3ccccc3c2=O)CC1 (stereo not drawn),inconclusive: 68.2%
13,Cc1cc(C)n(C(=O)CCCCCCCC(=O)n2nc(C)cc2C)n1,inactive: 0.667%
14,O=C(c1cccc(COCC(F)(F)C(F)F)c1)N1CCN(c2ccccc2)CC1,inconclusive: 31.2%
15,O=C(CNC1CCCCCC1)Nc1ccccc1N1CCCCC1,inconclusive: 36.6%
16,O=C(NC(=S)Nc1ccccc1N1CCOCC1)c1ccc([N+](=O)[O-])cc1,inconclusive: 34.8%
17,CC1CCN(C(=O)CSc2nnc(-c3ccccc3F)o2)CC1,inconclusive: 61.7%
18,CCCCn1nc(C(=O)N(C)CC(=O)Nc2cccc(F)c2)c2ccccc2c1=O,inactive: -4.87%
19,C=CCC(CC=C)(NC(=O)c1cccc(C)c1)c1ccccc1,inconclusive: 78.5%
20,Cc1cccc(C(=O)N/N=C/c2ccc(OC3CSC3)cc2)c1,inconclusive: 33.1%

# Pulled one by one from above, 5 records:
row,Compound,activation
7,CCOC(=O)C1CCN(C(=O)Nc2ccc3nc(C)c(C)nc3c2)CC1,inactive: -2.92%
16,Cc1ccc(Nc2ncnc3ccccc23)cc1,inconclusive: 70.1%
17,COC(=O)c1c(NC(=O)COC(=O)CC(NC(C)=O)c2ccccc2)sc(C)c1C (stereo not drawn),inactive: -0.284%
7,CN1/C(=C\C=O)C(C)(C)c2ccccc21,inactive: 0.248%
4,COC(=O)c1cc(OC)c(OC)cc1NC(=S)N1CCN(c2ccccn2)CC1,inactive: 13.6%

# Following part

row,Compound,activation
1,CC1CN(C(=O)Nc2cccc(Cl)c2)C2(CCCCCC2)O1 (stereo not drawn),inconclusive: 31.7%
2,COc1ccc(C(O)(CCC(C)C)C(CN2CCOCC2)c2ccccc2)cc1 (stereo not drawn),inconclusive: 39.3%
3,O=C(NCc1ccco1)C1CCN(c2nc3ccccc3n2Cc2ccc(F)cc2)CC1,inconclusive: 36.3%
4,CCOC(=O)C1(CCOc2ccccc2)CCN(Cc2cnc(C)s2)CC1,inconclusive: 34.2%
5,O=C(Nc1nc(-c2ccc(F)cc2)cs1)C1CCCO1 (stereo not drawn),inconclusive: 46.3%
6,CCCCCC(C(=O)O)C(C)CC(=O)NC1CCCCC1 (stereo not drawn),inactive: -0.431%
7,Cc1ccc(N2CCN(C(=O)c3cc(C(=O)c4ccccc4C)c[nH]3)CC2)c(C)c1,inconclusive: 41.1%
8,CCCCOC(=O)c1ccc(NC(=O)c2ocnc2C)cc1,inconclusive: 57.2%
9,Cc1cc(C)nc(SC2CC(=O)N(c3ccc(Cl)cc3)C2=O)n1 (stereo not drawn),inactive: 13%
10,O=C(CN(CC1CCCO1)C(=O)CNS(=O)(=O)c1ccc(F)cc1)NC1CCCCC1 (stereo not drawn),inactive: -0.677%
11,Cc1ccc(OCc2ccc(C(=O)NN)o2)cc1C,inconclusive: 62.6%
12,O=C(CCl)Nc1ccc(N2CCCCCC2)cc1,inconclusive: 56.2%
13,Cc1ccc(Sc2ccc(C(=O)N3CCOCC3)cc2[N+](=O)[O-])cc1,inconclusive: 32.2%
14,COc1cccc(C(c2nnnn2CCc2ccccc2)N2CCN(c3ccccc3)CC2)c1OC (stereo not drawn),inactive: 8.87%
15,CC(=O)c1cccc(NC(=O)Nc2ccc3c(c2)OCO3)c1,inconclusive: 43.7%
16,COc1ccccc1-c1cn[nH]c1-c1ccc(OCc2ccc(F)cc2)cc1O,inactive: -3.96%
17,CCc1ccccc1NC(=O)c1ccc2c(O)c(S(=O)(=O)c3ccc(OC)cc3)c(=O)[nH]c2c1,inactive: -9.81%
18,CCOC(=O)c1[nH]c2ccc(Br)cc2c1NC(=O)CCN1CCCCC1,inactive: 21.4%
